Values from PubChem BioAssay AID1259308 (NCATS, 2017).
Assay: 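Knock-downs that increase output of a recombinant reporter protein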 (primary screen). Cell system: human HEK293 embryonic kidney cells stably expressing firefly luciferase (HEK-CMV-Luc2-Hygro). Knock-down reagent: single siRNA against human genes, 0.8 pmol siRNA per well. Time to read-out: 72 h. Measured: 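Reporter luminescence and viable-cell signal on separate replicate plates, given as percent of non-targeting control and median/MAD z-scores, plus per-cell luciferase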. Direction: total luciferase, z-score and total luciferase, % of control: higher = more reporter protein produced; luciferase per cell, z-score: higher = more reporter output per viable cell; viable cells, % of control: higher = more viable cells. Rule for the call: 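Active when the median/MAD z-score for overall luciferase is greater than 3; a gene was taken forward for validation with new siRNAs if at least two of its three siRNAs passed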. Calls: active = raised luciferase; inactive = no rise.
The deposit covers about 59,000 reagents; below is a random part of them. Of all reagents, about 1,510 (2.6%) are marked active. 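Calls use total luciferase alone and ignore viability, so some active siRNAs may act by altering cell number.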 A number with no mark means an inactive call. Reagents against one gene are numbered here.

| gene | reagent no. | total luciferase, z-score | total luciferase, % of control | luciferase per cell, z-score | viable cells, % of control |
| --- | --- | --- | --- | --- | --- |
| FAM234B | 1 | 0.656 | 94.9 | 0.0531 | 105 |
| FAM234B | 2 | -0.74 | 67.2 | -0.876 | 94.5 |
| FAM234B | 3 | -0.548 | 71 | -0.373 | 87.5 |
| PPIA | 1 | -0.803 | 65.9 | -1.41 | 107 |
| PPIA | 2 | -0.705 | 67.9 | -1.06 | 100 |
| PPIA | 3 | 0.0714 | 83.3 | 0.624 | 79 |
| ARHGAP42 | 1 | -0.795 | 66.1 | -1.18 | 101 |
| ARHGAP42 | 2 | -1.99 | 42.3 | -1.3 | 66.7 |
| ARHGAP42 | 3 | -0.0733 | 80.4 | -0.339 | 98.3 |
| ARHGAP42 | 4 | 1.69 | 116 | 1.54 | 86 |
| ARHGAP42 | 5 | -0.268 | 76.6 | -0.0503 | 86.7 |
| ARHGAP42 | 6 | 2.23 | 126 | 2.02 | 82.9 |
| SMUG1 | 1 | 0.459 | 91 | 1.03 | 77.6 |
| SMUG1 | 2 | -0.724 | 67.5 | -0.874 | 94.9 |
| SMUG1 | 3 | 0.827 | 98.3 | 0.0784 | 108 |
| ZNF45 | 1 | -0.0368 | 81.2 | -0.022 | 91.2 |
| ZNF45 | 2 | 0.873 | 99.2 | 1.15 | 81.9 |
| ZNF45 | 3 | 0.533 | 92.5 | 0.572 | 88.9 |
| C1GALT1 | 1 | 0.487 | 91.6 | 0.052 | 101 |
| C1GALT1 | 2 | -0.747 | 67 | -0.248 | 80 |
| C1GALT1 | 3 | -1.45 | 53.1 | -0.478 | 67.2 |
| CECR2 | 1 | 0 | 81.9 | -0.614 | 108 |
| CECR2 | 2 | -0.0374 | 81.1 | -0.372 | 100 |
| CECR2 | 3 | -0.41 | 73.7 | 0.264 | 76.9 |
| WIPI2 | 1 | 0.593 | 93.7 | 0.112 | 102 |
| WIPI2 | 2 | -0.249 | 76.9 | -0.17 | 89.9 |
| WIPI2 | 3 | -1.72 | 47.8 | -1.54 | 80.1 |
| ALAS1 | 1 | 0.51 | 92 | 0.664 | 86.3 |
| ALAS1 | 2 | 0.166 | 85.2 | -0.718 | 115 |
| ALAS1 | 3 | -0.489 | 72.2 | -1.48 | 119 |
| PIGN | 1 | -0.784 | 66.3 | -0.981 | 95.9 |
| PIGN | 2 | 2.95 | 141 | 2.05 | 91.5 |
| PIGN | 3 | 0.81 | 98 | 1.23 | 79.1 |
| GRB7 | 1 | -0.691 | 68.2 | -0.787 | 93.7 |
| GRB7 | 2 | 1.18 | 105 | 0.549 | 102 |
| GRB7 | 3 | -1.28 | 56.5 | -1.75 | 100 |
| SOX15 | 1 | 0.0682 | 83.2 | 0.633 | 78.7 |
| SOX15 | 2 | 2.91 | 140 | 1.68 | 100 |
| SOX15 | 3 | 0.606 | 93.9 | 0.502 | 92 |
| CHST11 | 1 | 1.08 | 103 | 1.02 | 88.3 |
| CHST11 | 2 | -0.122 | 79.5 | 0.437 | 79.1 |
| CHST11 | 3 | -0.401 | 73.9 | -0.393 | 91.6 |
| MAFG | 1 | -0.545 | 71 | 1.06 | 60 |
| MAFG | 2 | -0.013 | 81.6 | 0.0163 | 90.8 |
| MAFG | 3 | -0.923 | 63.5 | -1.1 | 94.9 |
| RECQL4 | 1 | 2.56 | 133 | 2.14 | 84.4 |
| RECQL4 | 2 | 0.297 | 87.8 | -0.0559 | 99.6 |
| RECQL4 | 3 | 0.438 | 90.6 | 0.888 | 80.1 |
| KRTAP9-9 | 1 | 0.394 | 89.7 | 0.831 | 80.6 |
| KRTAP9-9 | 2 | -0.286 | 76.2 | 0.565 | 73.4 |
| KRTAP9-9 | 3 | 0.856 | 98.9 | 0.618 | 93.9 |
| CCDC32 | 1 | 1.32 | 108 | 0.384 | 109 |
| CCDC32 | 2 | 0.632 | 94.4 | 0.218 | 99.6 |
| CCDC32 | 3 | -0.0816 | 80.3 | 0.35 | 81.8 |
| THRB | 1 | -0.358 | 74.8 | -0.939 | 107 |
| THRB | 2 | -1.11 | 59.9 | -0.877 | 84.3 |
| THRB | 3 | -0.113 | 79.6 | -0.266 | 95.4 |

Entries above whose gene name starts with W or w (3):
| gene | reagent no. | total luciferase, z-score | total luciferase, % of control | luciferase per cell, z-score | viable cells, % of control |
| --- | --- | --- | --- | --- | --- |
| WIPI2 | 1 | 0.593 | 93.7 | 0.112 | 102 |
| WIPI2 | 2 | -0.249 | 76.9 | -0.17 | 89.9 |
| WIPI2 | 3 | -1.72 | 47.8 | -1.54 | 80.1 |
